In patent publication US20160176924A1 (priority 2008, published 2016):

Experiment: peptide synthesis
Details: whole synthesis

Row | Substance | final purity (method not given) [%] | isolated yield [%] | final purity (method not given) (run 1) [%]
1 | (IESDV)2PEG4 | 98 | 24 | 
2 | (IESDV)2PEG6 |  | 23 | 
3 | (IESDV)2PEG8 |  | 23 | 98
4 | (IESDV)2PEG12 |  | 40 | 98
5 | (IETAV)2PEG4 |  | 35 | 
